Measurements taken from patent publication US20250090516A1, “DRUG FOR TREATING AF[…] NOVEL CORONAVIRUS INFECTION” (THE JIKEI UNIVERSITY, priority 2022, published 2025).

System: gene expression of IL-6, TNFα and CCL2 in the brains of S1 mice
Settings: mouse, in vivo

COc1cc2c(cc1OC)C(=O)C(CC1CCN(Cc3ccccc3)CC1)C2.Cl (stereo not drawn) [donepezil, 2-[(1-benzyl-4-piperidyl)methyl]-5,6-dimethoxyindan-1-one hydrochloride]
tended to decrease: expression of CCL2 in the brains of the S1 mice | expression of IL-6 in the brains of the S1 mice | expression of TNFα in the brains of the S1 mice
